Measurements taken from publication PMC2702278.
These are yes or no findings as the source states them, for the method shown. Binding seen in cells or lysates may run through a third protein. These calls come from enrichment with a bait or labelling near it, and not all partners need be listed. Blank lines part the entries; values can stand above or below the molecule they belong to.

Chains of the proteins cited; added tags and fusions are not shown.
UniProt P48634: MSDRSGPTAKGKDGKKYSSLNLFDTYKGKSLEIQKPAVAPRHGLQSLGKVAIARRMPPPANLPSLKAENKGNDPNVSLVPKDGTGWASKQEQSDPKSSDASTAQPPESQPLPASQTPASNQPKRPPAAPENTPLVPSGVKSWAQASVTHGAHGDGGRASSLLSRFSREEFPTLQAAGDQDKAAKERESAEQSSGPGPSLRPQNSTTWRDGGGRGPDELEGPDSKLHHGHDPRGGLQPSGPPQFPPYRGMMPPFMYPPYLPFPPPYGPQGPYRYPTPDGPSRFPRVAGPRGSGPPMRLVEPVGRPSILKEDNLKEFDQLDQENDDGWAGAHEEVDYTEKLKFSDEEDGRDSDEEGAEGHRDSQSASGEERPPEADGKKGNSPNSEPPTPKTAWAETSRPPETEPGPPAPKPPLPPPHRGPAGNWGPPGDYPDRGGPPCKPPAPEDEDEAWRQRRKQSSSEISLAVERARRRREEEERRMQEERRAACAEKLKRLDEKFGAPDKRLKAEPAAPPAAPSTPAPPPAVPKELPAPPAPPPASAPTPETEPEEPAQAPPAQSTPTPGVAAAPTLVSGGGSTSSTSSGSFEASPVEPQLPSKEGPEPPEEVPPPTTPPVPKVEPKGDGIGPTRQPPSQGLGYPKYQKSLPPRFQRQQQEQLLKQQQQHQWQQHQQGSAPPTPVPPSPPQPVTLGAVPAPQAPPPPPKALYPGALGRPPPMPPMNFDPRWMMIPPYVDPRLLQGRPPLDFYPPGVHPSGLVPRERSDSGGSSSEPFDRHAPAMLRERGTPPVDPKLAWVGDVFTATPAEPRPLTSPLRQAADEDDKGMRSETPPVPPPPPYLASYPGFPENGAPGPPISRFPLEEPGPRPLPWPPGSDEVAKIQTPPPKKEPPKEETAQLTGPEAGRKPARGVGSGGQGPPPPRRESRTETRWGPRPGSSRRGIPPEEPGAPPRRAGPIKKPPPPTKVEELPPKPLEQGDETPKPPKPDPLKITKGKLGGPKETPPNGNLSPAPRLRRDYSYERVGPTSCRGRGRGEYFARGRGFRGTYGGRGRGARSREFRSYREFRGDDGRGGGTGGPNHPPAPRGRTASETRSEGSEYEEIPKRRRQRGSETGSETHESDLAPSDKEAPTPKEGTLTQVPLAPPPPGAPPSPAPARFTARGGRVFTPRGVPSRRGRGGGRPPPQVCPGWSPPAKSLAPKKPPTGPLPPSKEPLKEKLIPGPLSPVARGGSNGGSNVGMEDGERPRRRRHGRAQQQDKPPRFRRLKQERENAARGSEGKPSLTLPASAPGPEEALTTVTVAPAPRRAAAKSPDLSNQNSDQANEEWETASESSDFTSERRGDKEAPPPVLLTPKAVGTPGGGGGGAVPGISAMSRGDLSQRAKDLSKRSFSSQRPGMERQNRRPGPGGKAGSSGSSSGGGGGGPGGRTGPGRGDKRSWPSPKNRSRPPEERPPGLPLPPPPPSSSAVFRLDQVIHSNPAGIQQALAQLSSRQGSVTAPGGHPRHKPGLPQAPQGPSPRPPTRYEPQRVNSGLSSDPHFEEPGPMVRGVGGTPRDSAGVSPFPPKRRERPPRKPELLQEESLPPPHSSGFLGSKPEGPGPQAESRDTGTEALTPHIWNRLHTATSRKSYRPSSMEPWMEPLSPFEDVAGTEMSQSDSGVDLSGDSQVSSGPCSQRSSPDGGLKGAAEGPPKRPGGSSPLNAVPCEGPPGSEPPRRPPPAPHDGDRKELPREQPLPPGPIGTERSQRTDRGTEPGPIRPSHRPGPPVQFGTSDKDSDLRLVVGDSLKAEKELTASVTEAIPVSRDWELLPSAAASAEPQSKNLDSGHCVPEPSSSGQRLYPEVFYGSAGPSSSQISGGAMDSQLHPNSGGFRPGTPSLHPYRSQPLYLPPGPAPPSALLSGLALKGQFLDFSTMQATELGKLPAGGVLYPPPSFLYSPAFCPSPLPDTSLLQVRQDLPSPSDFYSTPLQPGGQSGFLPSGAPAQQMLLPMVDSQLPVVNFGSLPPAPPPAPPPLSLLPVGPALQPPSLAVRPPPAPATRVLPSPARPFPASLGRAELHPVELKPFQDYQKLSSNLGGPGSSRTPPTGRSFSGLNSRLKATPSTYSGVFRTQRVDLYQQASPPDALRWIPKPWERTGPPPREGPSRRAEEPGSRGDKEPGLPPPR
UniProt P27816: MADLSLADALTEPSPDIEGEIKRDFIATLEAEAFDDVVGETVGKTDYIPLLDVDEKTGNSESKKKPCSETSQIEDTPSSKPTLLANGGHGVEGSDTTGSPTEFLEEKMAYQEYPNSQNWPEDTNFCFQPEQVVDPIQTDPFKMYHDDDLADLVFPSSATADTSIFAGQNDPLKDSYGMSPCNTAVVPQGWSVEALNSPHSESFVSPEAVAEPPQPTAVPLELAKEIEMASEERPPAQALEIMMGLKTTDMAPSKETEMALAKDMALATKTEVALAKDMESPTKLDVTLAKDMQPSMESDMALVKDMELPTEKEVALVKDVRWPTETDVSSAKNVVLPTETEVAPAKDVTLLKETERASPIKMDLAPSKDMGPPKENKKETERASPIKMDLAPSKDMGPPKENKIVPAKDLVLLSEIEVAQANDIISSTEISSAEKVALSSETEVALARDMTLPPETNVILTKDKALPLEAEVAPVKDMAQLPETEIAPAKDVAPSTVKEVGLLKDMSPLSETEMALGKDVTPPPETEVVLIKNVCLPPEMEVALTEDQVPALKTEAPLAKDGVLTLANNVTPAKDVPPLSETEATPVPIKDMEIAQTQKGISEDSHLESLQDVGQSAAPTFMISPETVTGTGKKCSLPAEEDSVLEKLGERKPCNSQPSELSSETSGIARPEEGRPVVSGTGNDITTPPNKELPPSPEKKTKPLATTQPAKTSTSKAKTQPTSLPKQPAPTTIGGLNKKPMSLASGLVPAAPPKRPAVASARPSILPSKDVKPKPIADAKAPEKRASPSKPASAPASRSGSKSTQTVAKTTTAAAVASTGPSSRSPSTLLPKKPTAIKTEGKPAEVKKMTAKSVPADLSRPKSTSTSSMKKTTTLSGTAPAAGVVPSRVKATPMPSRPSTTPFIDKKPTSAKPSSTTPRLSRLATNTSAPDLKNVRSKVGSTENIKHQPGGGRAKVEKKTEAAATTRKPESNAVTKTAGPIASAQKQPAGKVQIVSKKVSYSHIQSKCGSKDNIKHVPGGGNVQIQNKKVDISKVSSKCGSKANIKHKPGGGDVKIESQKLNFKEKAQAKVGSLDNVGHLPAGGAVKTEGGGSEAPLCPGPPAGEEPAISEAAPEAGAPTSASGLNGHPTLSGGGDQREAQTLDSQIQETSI
UniProt Q9BVA0: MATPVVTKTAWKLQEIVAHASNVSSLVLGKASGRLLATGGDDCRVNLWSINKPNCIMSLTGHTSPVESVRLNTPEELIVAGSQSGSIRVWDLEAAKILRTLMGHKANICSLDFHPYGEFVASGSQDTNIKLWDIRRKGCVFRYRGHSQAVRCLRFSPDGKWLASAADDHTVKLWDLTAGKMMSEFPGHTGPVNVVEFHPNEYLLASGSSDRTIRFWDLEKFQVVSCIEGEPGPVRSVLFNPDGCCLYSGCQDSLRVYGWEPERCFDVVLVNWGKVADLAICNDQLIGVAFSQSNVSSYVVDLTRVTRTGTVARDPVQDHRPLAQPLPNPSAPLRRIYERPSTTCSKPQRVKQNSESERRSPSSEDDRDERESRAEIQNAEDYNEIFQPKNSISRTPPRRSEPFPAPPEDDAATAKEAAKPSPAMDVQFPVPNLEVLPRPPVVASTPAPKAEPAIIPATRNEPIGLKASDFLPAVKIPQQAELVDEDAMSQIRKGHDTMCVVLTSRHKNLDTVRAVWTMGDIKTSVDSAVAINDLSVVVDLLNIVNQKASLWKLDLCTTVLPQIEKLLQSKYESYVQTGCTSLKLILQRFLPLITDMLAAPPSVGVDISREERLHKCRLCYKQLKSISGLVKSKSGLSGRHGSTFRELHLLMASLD
UniProt P11940: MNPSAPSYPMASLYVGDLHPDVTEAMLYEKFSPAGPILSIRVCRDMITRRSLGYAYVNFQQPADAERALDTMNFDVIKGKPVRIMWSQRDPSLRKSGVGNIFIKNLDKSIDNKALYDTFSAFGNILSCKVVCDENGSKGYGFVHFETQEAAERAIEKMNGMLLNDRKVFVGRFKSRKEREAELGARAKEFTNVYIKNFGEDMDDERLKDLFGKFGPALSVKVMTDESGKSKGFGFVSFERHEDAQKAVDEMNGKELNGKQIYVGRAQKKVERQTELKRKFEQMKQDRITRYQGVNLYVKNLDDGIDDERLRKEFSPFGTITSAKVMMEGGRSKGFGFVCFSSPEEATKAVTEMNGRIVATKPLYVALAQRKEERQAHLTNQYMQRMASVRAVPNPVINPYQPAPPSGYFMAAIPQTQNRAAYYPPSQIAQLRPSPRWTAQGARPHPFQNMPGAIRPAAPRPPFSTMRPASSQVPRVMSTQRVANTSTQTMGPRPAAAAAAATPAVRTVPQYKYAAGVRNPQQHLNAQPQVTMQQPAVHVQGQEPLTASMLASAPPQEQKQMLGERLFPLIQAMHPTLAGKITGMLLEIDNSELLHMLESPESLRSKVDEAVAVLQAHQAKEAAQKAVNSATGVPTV
UniProt Q8IUD2: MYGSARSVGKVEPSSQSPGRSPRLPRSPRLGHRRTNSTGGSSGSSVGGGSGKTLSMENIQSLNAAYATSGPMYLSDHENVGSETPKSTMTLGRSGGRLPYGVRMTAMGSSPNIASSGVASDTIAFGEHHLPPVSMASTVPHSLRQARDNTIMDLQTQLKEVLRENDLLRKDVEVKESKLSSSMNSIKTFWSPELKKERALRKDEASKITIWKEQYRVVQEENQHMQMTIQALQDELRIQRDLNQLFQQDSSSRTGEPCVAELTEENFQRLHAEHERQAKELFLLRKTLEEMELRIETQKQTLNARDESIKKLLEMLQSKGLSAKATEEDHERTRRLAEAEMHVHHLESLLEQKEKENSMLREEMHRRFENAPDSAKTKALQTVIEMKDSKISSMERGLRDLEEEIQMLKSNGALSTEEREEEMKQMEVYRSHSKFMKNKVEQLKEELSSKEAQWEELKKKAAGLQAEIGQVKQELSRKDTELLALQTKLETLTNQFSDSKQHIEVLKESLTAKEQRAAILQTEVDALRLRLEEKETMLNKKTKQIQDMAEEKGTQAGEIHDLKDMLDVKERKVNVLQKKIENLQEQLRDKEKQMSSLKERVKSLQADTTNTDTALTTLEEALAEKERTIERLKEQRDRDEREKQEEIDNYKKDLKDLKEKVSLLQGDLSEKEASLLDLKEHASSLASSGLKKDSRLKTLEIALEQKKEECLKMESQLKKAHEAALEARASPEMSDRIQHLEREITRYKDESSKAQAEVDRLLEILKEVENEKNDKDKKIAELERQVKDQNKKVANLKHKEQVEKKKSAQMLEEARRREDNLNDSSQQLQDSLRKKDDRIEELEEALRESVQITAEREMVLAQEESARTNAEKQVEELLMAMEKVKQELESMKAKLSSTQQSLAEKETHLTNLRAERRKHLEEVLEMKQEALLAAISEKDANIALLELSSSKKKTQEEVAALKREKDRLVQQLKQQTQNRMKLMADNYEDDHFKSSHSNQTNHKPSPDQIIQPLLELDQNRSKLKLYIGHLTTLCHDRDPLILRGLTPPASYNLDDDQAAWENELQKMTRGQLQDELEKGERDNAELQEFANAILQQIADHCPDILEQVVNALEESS
UniProt O00401: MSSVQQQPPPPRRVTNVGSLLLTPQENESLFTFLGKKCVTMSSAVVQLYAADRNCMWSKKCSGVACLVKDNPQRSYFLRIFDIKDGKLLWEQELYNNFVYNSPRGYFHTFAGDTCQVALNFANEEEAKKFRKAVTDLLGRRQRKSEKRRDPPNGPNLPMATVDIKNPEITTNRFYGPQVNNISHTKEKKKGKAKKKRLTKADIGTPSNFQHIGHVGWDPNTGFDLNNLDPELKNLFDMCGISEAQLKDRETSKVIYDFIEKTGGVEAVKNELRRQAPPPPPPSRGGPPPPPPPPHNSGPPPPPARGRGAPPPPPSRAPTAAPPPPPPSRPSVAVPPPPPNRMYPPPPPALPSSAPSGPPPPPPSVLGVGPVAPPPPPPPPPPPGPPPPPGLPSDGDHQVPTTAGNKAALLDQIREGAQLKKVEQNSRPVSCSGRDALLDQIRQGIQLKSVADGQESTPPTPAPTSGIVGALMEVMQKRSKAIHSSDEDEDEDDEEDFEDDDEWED

Tests used:
[1] = target: GST-fusion SH3A domain of Ruk/CIN85 (UniProt Q96B97); test: affinity purification with mass spectrometry; GST-fusion SH3 domain (about 10 μg on 40 μl Glutathione Sepharose 4B) incubated 4 h at 4°C with HeLa lysate pre-cleared on GST beads; 20 mM Tris pH 7.5, 150 mM NaCl, 5 mM EDTA, 5% glycerol, 0.5% Triton X-100 (washes 0.1%); SDS-PAGE, in-gel trypsin digestion, LC-MS/MS; hits also found with GST alone removed; only the target purified
[2] = target: GST-fusion SH3C domain of Ruk/CIN85 (UniProt Q96B97); test: as above

binding [1]: binds
binding [2]: binds
Molecule: srGAP1 (from UniProt Q7Z6B7 1-1085)

binding [1]: binds
binding [2]: binds
Molecule: BAT2 (from UniProt P48634 1-2157)

binding [1]: binds
binding [2]: binds
Molecule: MAP4 (from UniProt P27816 1-1152)

binding [1]: binds
binding [2]: binds
Molecule: SRm300 (from UniProt Q9UQ35 1-2752)

binding [1]: binds
binding [2]: binds
Molecule: POM121 (from UniProt Q96HA1 1-1249)

binding [1]: binds
binding [2]: binds
Molecule: IRF2-BP2 (from UniProt Q7Z5L9 1-587)

binding [1]: binds
binding [2]: binds
Molecule: Katanin p80 (from UniProt Q9BVA0 1-655)

binding [1]: binds
binding [2]: binds
Molecule: PABPC1 (from UniProt P11940 1-636)

binding [1]: binds
binding [2]: binds
Molecule: ELKS (from UniProt Q8IUD2 1-1116)

binding [1]: binds
binding [2]: binds
Molecule: DDX17 (from UniProt Q92841 1-729)

binding [1]: binds
binding [2]: binds
Molecule: WIP (from UniProt O43516 1-503)

binding [1]: binds
binding [2]: binds
Molecule: N-WASP (from UniProt O00401 1-505)

binding [1]: binds
B1: Plakophilin 3 (protein, UniProt Q9Y446 1-797)
chain: MQDGNFLLSALQPEAGVCSLALPSDLQLDRRGAEGPEAERLRAARVQEQVRARLLQLGQQPRHNGAAEPEPEAETARGTSRGQYHTLQAGFSSRSQGLSGDKTSGFRPIAKPAYSPASWSSRSAVDLSCSRRLSSAHNGGSAFGAAGYGGAQPTPPMPTRPVSFHERGGVGSRADYDTLSLRSLRLGPGGLDDRYSLVSEQLEPAATSTYRAFAYERQASSSSSRAGGLDWPEATEVSPSRTIRAPAVRTLQRFQSSHRSRGVGGAVPGAVLEPVARAPSVRSLSLSLADSGHLPDVHGFNSYGSHRTLQRLSSGFDDIDLPSAVKYLMASDPNLQVLGAAYIQHKCYSDAAAKKQARSLQAVPRLVKLFNHANQEVQRHATGAMRNLIYDNADNKLALVEENGIFELLRTLREQDDELRKNVTGILWNLSSSDHLKDRLARDTLEQLTDLVLSPLSGAGGPPLIQQNASEAEIFYNATGFLRNLSSASQATRQKMRECHGLVDALVTSINHALDAGKCEDKSVENAVCVLRNLSYRLYDEMPPSALQRLEGRGRRDLAGAPPGEVVGCFTPQSRRLRELPLAADALTFAEVSKDPKGLEWLWSPQIVGLYNRLLQRCELNRHTTEAAAGALQNITAGDRRWAGVLSRLALEQERILNPLLDRVRTADHHQLRSLTGLIRNLSRNARNKDEMSTKVVSHLIEKLPGSVGEKSPPAEVLVNIIAVLNNLVVASPIAARDLLYFDGLRKLIFIKKKRDSPDSEKSSRAASSLLANLWQYNKLHRDFRAKGYRKEDFLGP

binding [1]: binds
binding [2]: binds
B2: SRm160 (protein, UniProt Q8IYB3 1-904)
chain: MDAGFFRGTSAEQDNRFSNKQKKLLKQLKFAECLEKKVDMSKVNLEVIKPWITKRVTEILGFEDDVVIEFIFNQLEVKNPDSKMMQINLTGFLNGKNAREFMGELWPLLLSAQENIAGIPSAFLELKKEEIKQRQIEQEKLASMKKQDEDKDKRDKEEKESSREKRERSRSPRRRKSRSPSPRRRSSPVRRERKRSHSRSPRHRTKSRSPSPAPEKKEKTPELPEPSVKVKEPSVQEATSTSDILKVPKPEPIPEPKEPSPEKNSKKEKEKEKTRPRSRSRSKSRSRTRSRSPSHTRPRRRHRSRSRSYSPRRRPSPRRRPSPRRRTPPRRMPPPPRHRRSRSPVRRRRRSSASLSGSSSSSSSSRSRSPPKKPPKRTSSPPRKTRRLSPSASPPRRRHRPSPPATPPPKTRHSPTPQQSNRTRKSRVSVSPGRTSGKVTKHKGTEKRESPSPAPKPRKVELSESEEDKGGKMAAADSVQQRRQYRRQNQQSSSDSGSSSSSEDERPKRSHVKNGEVGRRRRHSPSRSASPSPRKRQKETSPRGRRRRSPSPPPTRRRRSPSPAPPPRRRRTPTPPPRRRTPSPPPRRRSPSPRRYSPPIQRRYSPSPPPKRRTASPPPPPKRRASPSPPPKRRVSHSPPPKQRSSPVTKRRSPSLSSKHRKGSSPSRSTREARSPQPNKRHSPSPRPRAPQTSSSPPPVRRGASSSPQRRQSPSPSTRPIRRVSRTPEPKKIKKAASPSPQSVRRVSSSRSVSGSPEPAAKKPPAPPSPVQSQSPSTNWSPAVPVKKAKSPTPSPSPPRNSDQEGGGKKKKKKKDKKHKKDKKHKKHKKHKKEKAVAAAAAAAVTPAAIAAATTTLAQEEPVAAPEPKKETESEAEDNLDDLEKHLREKALRSMRKAQVSPQS

binding [1]: binds
B3: GAR22 (protein, UniProt Q99501 1-681)
chain: MADPVAGIAGSAAKSVRPFRSSEAYVEAMKEDLAEWLNALYGLGLPGGGDGFLTGLATGTTLCQHANAVTEAARALAAARPARGVAFQAHSVVPGSFMARDNVATFIGWCRVELGVPEVLMFETEDLVLRKNEKSVVLCLLEVARRGARLGLLAPRLVQFEQEIERELRAAPPAPNAPAAGEDTTETAPAPGTPARGPRMTPSDLRNLDELVREILGRCTCPDQFPMIKVSEGKYRVGDSSLLIFVRVLRSHVMVRVGGGWDTLEHYLDKHDPCRCSSTAHRPPQPRVCTFSPQRVSPTTSPRPASPVPGSERRGSRPEMTPVSLRSTKEGPETPPRPRDQLPPHPRSRRYSGDSDSSASSAQSGPLGTRSDDTGTGPRRERPSRRLTTGTPASPRRPPALRSQSRDRLDRGRPRGAPGGRGAQLSVPSPARRARSQSREEQAVLLVRRDRDGQHSWVPRGRGSGGSGRSTPQTPRARSPAAPRLSRVSSPSPELGTTPASIFRTPLQLDPQQEQQLFRRLEEEFLANARALEAVASVTPTGPVPDPARAPDPPAPDSAYCSSSSSSSSLSVLGGKCGQPGDSGRTANGLPGPRSQALSSSSDEGSPCPGMGGPLDAPGSPLACTEPSRTWARGRMDTQPDRKPSRIPTPRGPRRPSGPAELGTWHALHSVTPRAEPDSWM

binding [1]: binds
binding [2]: binds
B4: CARP1 (protein, UniProt Q8IX12 1-1150)
chain: MAQFGGQKNPPWATQFTATAVSQPAALGVQQPSLLGASPTIYTQQTALAAAGLTTQTPANYQLTQTAALQQQAAAAAAALQQQYSQPQQALYSVQQQLQQPQQTLLTQPAVALPTSLSLSTPQPTAQITVSYPTPRSSQQQTQPQKQRVFTGVVTKLHDTFGFVDEDVFFQLSAVKGKTPQVGDRVLVEATYNPNMPFKWNAQRIQTLPNQNQSQTQPLLKTPPAVLQPIAPQTTFGVQTQPQPQSLLQAQISAASITPLLQTQPQPLLQQPQQKAGLLQPPVRIVSQPQPARRLDPPSRFSGRNDRGDQVPNRKDDRSRERERERRRSRERSPQRKRSRERSPRRERERSPRRVRRVVPRYTVQFSKFSLDCPSCDMMELRRRYQNLYIPSDFFDAQFTWVDAFPLSRPFQLGNYCNFYVMHREVESLEKNMAILDPPDADHLYSAKVMLMASPSMEDLYHKSCALAEDPQELRDGFQHPARLVKFLVGMKGKDEAMAIGGHWSPSLDGPDPEKDPSVLIKTAIRCCKALTGIDLSVCTQWYRFAEIRYHRPEETHKGRTVPAHVETVVLFFPDVWHCLPTRSEWETLSRGYKQQLVEKLQGERKEADGEQDEEEKDDGEAKEISTPTHWSKLDPKTMKVNDLRKELESRALSSKGLKSQLIARLTKQLKVEEQKEEQKELEKSEKEEDEDDDRKSEDDKEEEERKRQEEIERQRRERRYILPDEPAIIVHPNWAAKSGKFDCSIMSLSVLLDYRLEDNKEHSFEVSLFAELFNEMLQRDFGVRIYKSLLSLPEKEDKKEKDKKSKKDERKDKKEERDDETDEPKPKRRKSGDDKDKKEDRDERKKEDKRKDDSKDDDETEEDNNQDEYDPMEAEEAEDEEDDRDEEEMTKRDDKRDINRYCKERPSKDKEKEKTQMITINRDLLMAFVYFDQSHCGYLLEKDLEEILYTLGLHLSRAQVKKLLNKVVLRESCFYRKLTDTSKDEENHEESESLQEDMLGNRLLLPTPTVKQESKDVEENVGLIVYNGAMVDVGSLLQKLEKSEKVRAEVEQKLQLLEEKTDEDEKTILNLENSNKSLSGELREVKKDLSQLQENLKISENMNLQFENQMNKTIRNLSTVMDEIHTVLKKDNVKNEDKDQKSKENGASV

binding [1]: binds
B5: 3BP-2 (protein, UniProt P78314 1-561)
chain: MAAEEMHWPVPMKAIGAQNLLTMPGGVAKAGYLHKKGGTQLQLLKWPLRFVIIHKRCVYYFKSSTSASPQGAFSLSGYNRVMRAAEETTSNNVFPFKIIHISKKHRTWFFSASSEEERKSWMALLRREIGHFHEKKDLPLDTSDSSSDTDSFYGAVERPVDISLSPYPTDNEDYEHDDEDDSYLEPDSPEPGRLEDALMHPPAYPPPPVPTPRKPAFSDMPRAHSFTSKGPGPLLPPPPPKHGLPDVGLAAEDSKRDPLCPRRAEPCPRVPATPRRMSDPPLSTMPTAPGLRKPPCFRESASPSPEPWTPGHGACSTSSAAIMATATSRNCDKLKSFHLSPRGPPTSEPPPVPANKPKFLKIAEEDPPREAAMPGLFVPPVAPRPPALKLPVPEAMARPAVLPRPEKPQLPHLQRSPPDGQSFRSFSFEKPRQPSQADTGGDDSDEDYEKVPLPNSVFVNTTESCEVERLFKATSPRGEPQDGLYCIRNSSTKSGKVLVVWDETSNKVRNYRIFEKDSKFYLEGEVLFVSVGSMVEHYHTHVLPSHQSLLLRHPYGYTGPR

binding [1]: binds
B6: 9G8 (protein, UniProt Q16629 1-238)
chain: MSRYGRYGGETKVYVGNLGTGAGKGELERAFSYYGPLRTVWIARNPPGFAFVEFEDPRDAEDAVRGLDGKVICGSRVRVELSTGMPRRSRFDRPPARRPFDPNDRCYECGEKGHYAYDCHRYSRRRRSRSRSRSHSRSRGRRYSRSRSRSRGRRSRSASPRRSRSISLRRSRSASLRRSRSGSIKGSRYFQSPSRSRSRSRSISRPRSSRSKSRSPSPKRSRSPSGSPRRSASPERMD
